Source: paper PMC11224396
No constants are given. Whether binding was seen depends on the method and setting. In cells and extracts the contact can be indirect. These calls come from enrichment with a bait or labelling near it, and not all partners need be listed.

Amino acid sequences for entries named in this document (tags omitted).
UniProt Q86U44: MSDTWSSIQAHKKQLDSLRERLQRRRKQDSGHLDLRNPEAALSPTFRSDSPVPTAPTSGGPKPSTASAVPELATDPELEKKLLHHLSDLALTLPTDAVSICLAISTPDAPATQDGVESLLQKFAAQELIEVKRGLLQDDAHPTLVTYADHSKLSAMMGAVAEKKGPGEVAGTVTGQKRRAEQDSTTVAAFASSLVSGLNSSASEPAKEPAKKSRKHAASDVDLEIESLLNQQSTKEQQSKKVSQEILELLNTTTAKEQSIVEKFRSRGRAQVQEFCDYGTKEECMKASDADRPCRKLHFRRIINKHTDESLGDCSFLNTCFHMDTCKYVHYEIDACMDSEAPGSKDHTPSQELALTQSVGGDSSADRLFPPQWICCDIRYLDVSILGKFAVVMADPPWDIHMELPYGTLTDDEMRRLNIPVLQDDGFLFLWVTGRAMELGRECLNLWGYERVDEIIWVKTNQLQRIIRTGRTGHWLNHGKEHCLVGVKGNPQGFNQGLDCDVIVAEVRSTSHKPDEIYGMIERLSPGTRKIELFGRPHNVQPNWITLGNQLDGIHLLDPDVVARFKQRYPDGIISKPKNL
UniProt Q15365: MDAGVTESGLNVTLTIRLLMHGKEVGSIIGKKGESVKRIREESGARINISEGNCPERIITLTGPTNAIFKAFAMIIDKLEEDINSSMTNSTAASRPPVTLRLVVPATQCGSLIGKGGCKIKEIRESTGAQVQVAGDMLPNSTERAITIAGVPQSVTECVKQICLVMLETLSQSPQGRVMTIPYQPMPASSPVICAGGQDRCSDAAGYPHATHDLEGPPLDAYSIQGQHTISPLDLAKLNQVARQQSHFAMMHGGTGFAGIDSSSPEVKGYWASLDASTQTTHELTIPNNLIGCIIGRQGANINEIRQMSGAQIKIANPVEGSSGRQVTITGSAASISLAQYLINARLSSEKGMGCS

Molecular target: METTL3 (human (endogenous in EC109)) (UniProt Q86U44)
Test: affinity purification with mass spectrometry; co-immunoprecipitation with anti-METTL3 and anti-METTL14 antibodies from EC109 cells, HPLC-MS identification of the pulled-down proteins, iBAQ values

| binding | Molecule |
| --- | --- |
| binds | PCBP1 (from UniProt Q15365 1-356) |
| binds | HNRNPM (protein, UniProt P52272 1-730) MAAGVEAAAEVAATEIKMEEESGAPGVPSGNGAPGPKGEGERPAQNEKRKEKNIKRGGNRFEPYANPTKRYRAFITNIPFDVKWQSLKDLVKEKVGEVTYVELLMDAEGKSRGCAVVEFKMEESMKKAAEVLNKHSLSGRPLKVKEDPDGEHARRAMQKVMATTGGMGMGPGGPGMITIPPSILNNPNIPNEIIHALQAGRLGSTVFVANLDYKVGWKKLKEVFSMAGVVVRADILEDKDGKSRGIGTVTFEQSIEAVQAISMFNGQLLFDRPMHVKMDERALPKGDFFPPERPQQLPHGLGGIGMGLGPGGQPIDANHLNKGIGMGNIGPAGMGMEGIGFGINKMGGMEGPFGGGMENMGRFGSGMNMGRINEILSNALKRGEIIAKQGGGGGGGSVPGIERMGPGIDRLGGAGMERMGAGLGHGMDRVGSEIERMGLVMDRMGSVERMGSGIERMGPLGLDHMASSIERMGQTMERIGSGVERMGAGMGFGLERMAAPIDRVGQTIERMGSGVERMGPAIERMGLSMERMVPAGMGAGLERMGPVMDRMATGLERMGANNLERMGLERMGANSLERMGLERMGANSLERMGPAMGPALGAGIERMGLAMGGGGGASFDRAIEMERGNFGGSFAGSFGGAGGHAPGVARKACQIFVRNLPFDFTWKMLKDKFNECGHVLYADIKMENGKSKGCGVVKFESPEVAERACRMMNGMKLSGREIDVRIDRNA |
| binds | U2AF1 (protein, UniProt Q01081 1-240) MAEYLASIFGTEKDKVNCSFYFKIGACRHGDRCSRLHNKPTFSQTIALLNIYRNPQNSSQSADGLRCAVSDVEMQEHYDEFFEEVFTEMEEKYGEVEEMNVCDNLGDHLVGNVYVKFRREEDAEKAVIDLNNRWFNGQPIHAELSPVTDFREACCRQYEMGECTRGGFCNFMHLKPISRELRRELYGRRRKKHRSRSRSRERRSRSRDRGRGGGGGGGGGGGGRERDRRRSRDRERSGRF |
